According to patent publication US20160252495A1 (UNIVERSITY OF BRITISH COLUMBIA, published 2016):
Results are given in words; binding and its absence hold for the method and conditions named. Binding can be weak; no strength is given.

Experiments:
[1] = molecular target: H1N1 labeled antigen (hemagglutinin subtype H1N1) (influenza virus H1N1); assay: functional validation of recombinant mAbs, bead assay
[2] = molecular target: H3N2 labeled antigen (hemagglutinin subtype H3N2) (influenza virus H3N2); assay: as above

Binder	binding [1]	binding [2]
Hs-7 human monoclonal antibody (antibody, V domains shown) VH: QVQLQESGPGLVKSSETLSLTCTVSGDSITSSTYDWGWIRQPPGKGLEWIGNVYYRGSTYYNPSLKSRVTISVDRSRTQISLRLSSVTAADTALYFCARHPKRLTVFEVVNAFDIWGQGQTMVTVFSASTKGPSVFPLAPSSKSTSGGTA VL: QSALTQPASVSASPGQSITISCTGISSDIGGYSSVSWYQAHPGKAPKLMIYDVNNRPSGISNRFSGSKSGNTASLAISGLQAEDEADYYCSLYTSINASIVFGGGTKLTVLGQPKAAPSVTLFPPSS	binds	binds
Hs-15 human monoclonal antibody (antibody, V domains shown) VH: QLQLQESGPGLVKPSETLSLTCTVSGDSISSSTYYWGWIRQPPGKGLEWIAFIFYSGSTFYNPSLKSRVTVSVDRSTNQFSLRLKSVTAADTSRYYCARHPKRISIFEVVNAFDIWGQGTMVTVSS VL: QSALTQPASVSGSPGQSITITCTGISSDVGAYNSVSWYQQYPGKSPKLMIYDVSNRSSGVSNRFSGSKSDNTASLTISGLQAEDEASYFCSLYRSSTTSVVFGGGTKLTVLR	binds	binds
